Results taken from PubChem BioAssay AID1347075 (National Center for Advancing Translational Sciences (NCATS), 2019).
Hit rate of the full screen: of about 400,000 compounds, about 5,500 (1.4%) were called active. The inconclusive results got no clear call from the source; some entries with a clear call stand among them for comparison. Calls follow the shape of the dose curve; as a rule, active = well fitted cell-killing curve with a large enough effect; inconclusive = small, poorly fitted or top-dose-only effect, or effect the other way; inactive = flat fitted curve, though single readings scatter. Potencies of inconclusive entries are doubtful fits and often do not repeat.
% is scaled to controls: 0 for no effect and ±100 for the full control effect; potency is read from the fitted curve at half-maximal effect.

Assay: qHTS assay for MDR1-selective chemotherapeutics: Primary screen using the parental adenocarcinoma cell KB-3-1; also: nearly all actives have a fitted effect of over 60% in size
Conditions: KB-3-1 viability, CellTiter-Glo ATP luminescence, 72 h; activity change, negative = cytotoxic: at 46.1 µM (top of the series)
Method in brief: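 Parental KB-3-1 viability, qHTS format: 72 h compound exposure, 37 °C; CellTiter-Glo; media-only wells and DMSO plates as controls; concentration-effect fits on corrected data.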
For `CC(C)CC(=O)Nc1ccc(C(=O)CN2C(=O)NC3(CCOc4ccccc43)C2=O)cc1` (stereo not drawn), the “activity change, negative = cytotoxic” value was inactive: 6.23%.
For `Cc1cccc(OCC(=O)NC(=S)NNC(=O)c2ccncc2)c1`, the “activity change, negative = cytotoxic” value was inactive: 0.736%.
In the case of `O=C1NC(=S)N/C1=C/c1ccc2c(c1)OCO2`, the Potency is reported as inconclusive: 29.1 µM [cytotoxic, single point].
In the case of `Cc1ccc(N2CCN(C(=O)CNS(=O)(=O)c3ccc(Br)s3)CC2C)cc1` (stereo not drawn), the Potency is reported as inconclusive: 32.6 µM [cytotoxic, partial curve, poor fit].
With `COC(=O)C1=C(C)N(Cc2ccccc2)C(=NCc2ccccc2)N[C@H]1c1cccc(C(F)(F)F)c1` the Potency was inconclusive: 29.1 µM [cytotoxic, single point].
In the case of `O=C(O)/C=C\C(=O)Nc1ccc(N2CCN(c3ccc(F)cc3)CC2)cc1`, the Potency is reported as inconclusive: 20.6 µM [rising, single point].
In the case of `Cn1c(=O)c2c(nc(NCCc3ccccc3)n2Cc2ccc(Cl)cc2)n(C)c1=O`, the Potency is reported as inconclusive: 29.1 µM [cytotoxic, single point].
With `Cc1ccc(C2=NN=C(NC(=O)CSc3nncn3C)SC2)cc1` the “activity change, negative = cytotoxic” value was inactive: -4.33%.
For `COc1ccc(NC(=O)Nc2ccc3c(c2)C(=O)N([C@@H](C)CO)C[C@@H](C)[C@@H](CN(C)S(=O)(=O)c2cn(C)cn2)O3)cc1`, the “activity change, negative = cytotoxic” value was inactive: -13.1%.
In the case of `COc1ccc([C@H]2C[C@H](n3cc(-c4ccc(F)cc4)nn3)[C@@H](O)CN2CC2CCCCC2)cc1`, the Potency is reported as inconclusive: 25.9 µM [cytotoxic, single point].
For `O=C(COC(=O)CSc1ccc(F)cc1)NCc1ccco1`, the Potency was inconclusive: 29.1 µM [cytotoxic, single point].
With `CC(C)CCNC(=O)C(c1ccc(O)cc1)N(Cc1cccs1)C(=O)C1COc2ccccc2O1` (stereo not drawn) the Potency was inconclusive: 29.1 µM [cytotoxic, single point].
In the case of `COc1cc2c(c(OC)c1OC)-c1ccc(SC)c(=O)cc1C(NC=O)CC2` (stereo not drawn), the Potency is reported as active: 0.0065 µM.
For `CN(CC(=O)Nc1cccc(F)c1)C(=O)c1cccc(S(=O)(=O)N2CCN(Cc3ccccc3)CC2)c1`, the Potency was inconclusive: 18.4 µM [cytotoxic, partial curve, poor fit].
In the case of `CCc1ccccc1NC(=O)[C@@H](c1ccccc1)N1Cc2ccccc2C1=O`, the “activity change, negative = cytotoxic” value is reported as inactive: -3.6%.
In the case of `Cc1ncc(CO)c(CO)c1O`, the activity change, negative = cytotoxic is reported as inconclusive: -40.1%.
In the case of `Cc1ccc(CNC(=O)CSc2ncc3c(n2)-c2ccc(Cl)cc2N(Cc2ccccc2)S3(=O)=O)cc1`, the “activity change, negative = cytotoxic” value is reported as inactive: 0%.
In the case of `O=C(NC1CCN(Cc2ccccc2)CC1)c1cccc(S(=O)(=O)Nc2ccc(SC(F)F)cc2)c1`, the Potency is reported as inconclusive: 14.6 µM [cytotoxic, single point].
In the case of `c1cnc(-c2nnc3n2CCCCC3)cn1`, the “activity change, negative = cytotoxic” value is reported as inactive: -4.73%.
In the case of `CC(C)[C@@H]1CC[C@@H](C)C[C@H]1OC(=O)C[n+]1cc(-c2ccc(Cl)cc2)n2c1CCCCC2`, the Potency is reported as inconclusive: 18.4 µM [cytotoxic, single point].
With `COc1ccc(S(=O)(=O)/N=C2\C=C(Nc3ccc(O)cc3)C(=O)c3ccccc32)cc1` the Potency was active: 5.17 µM.
In the case of `CCCCCCCCNc1ncnc2[nH]ncc12`, the Potency is reported as inconclusive: 20.6 µM [cytotoxic, single point].
In the case of `Cc1ccc(S(=O)(=O)N2CCOCC2)cc1NC(=O)CN(C)C1CCS(=O)(=O)C1` (stereo not drawn), the “activity change, negative = cytotoxic” value is reported as inactive: 7.73%.
In the case of `CCCOP(=O)(c1ccc(N(C)C)cc1)C(O)c1cccnc1` (stereo not drawn), the “activity change, negative = cytotoxic” value is reported as inactive: 6.43%.
For `CCN(c1ccccc1)S(=O)(=O)c1cc2c3c(c1)C(C)C(=O)N3CCC2` (stereo not drawn), the Potency was inconclusive: 0.92 µM [rising, full curve].
In the case of `O=c1c2cc(NC(=S)NCCCN3CCC(Cc4ccccc4)CC3)ccc2nc2n1CCCCC2`, the Potency is reported as active: 23.1 µM.
In the case of `COc1ccccc1CC(=O)Nc1ccc(Cl)cc1C(=O)O`, the Potency is reported as inconclusive: 23.1 µM [cytotoxic, single point].
In the case of `CCOc1ccc(OCC)c(NC(=O)CN2CCC(NC(=O)c3cccc(F)c3)CC2)c1`, the Potency is reported as inconclusive: 29.1 µM [cytotoxic, single point].
In the case of `O=C(Nc1nc2n(n1)C(c1ccc(Cl)cc1)CC(c1ccc(Cl)cc1)N2)c1ccco1` (stereo not drawn), the Potency is reported as inconclusive: 23.1 µM [cytotoxic, single point].
In the case of `Cc1cccc(C)c1Oc1nc(-c2ccccc2)ncc1S(=O)(=O)c1ccccc1`, the Potency is reported as inconclusive: 16.4 µM [cytotoxic, single point].
For `CN(CC1CCN(CCc2cccc(C(F)(F)F)c2)CC1)C(=O)c1ccc(F)cc1F`, the “activity change, negative = cytotoxic” value was inactive: -0.148%.
With `COCCCn1c(-c2ccc(S(=O)(=O)N3CCOCC3)cc2)csc1=Nc1ccccc1` the Potency was inconclusive: 5.8 µM [cytotoxic, partial curve, poor fit].
For `CCNC(=O)c1cc2c(=O)n3cccc(C)c3nc2n(Cc2ccc(C)cc2)c1=N`, the Potency was inconclusive: 25.9 µM [cytotoxic, single point].
In the case of `CCN(CC)S(=O)(=O)c1ccc(Oc2ccc(S(=O)(=O)N(CC)CC)cc2)cc1`, the Potency is reported as inconclusive: 3.66 µM [cytotoxic, full curve, poor fit].
For `Nc1nnnn1/N=C/C(Br)=C/c1ccccc1`, the Potency was inconclusive: 29.1 µM [cytotoxic, single point].
In the case of `O=C1/C(=C/c2ccccc2O)SC(=S)N1Cc1cccnc1`, the Potency is reported as active: 3.26 µM.
With `O=C(/C=C/c1ccccc1)NC(NC(=S)Nc1cccc(Cl)c1)C(Cl)(Cl)Cl` (stereo not drawn) the Potency was inconclusive: 25.9 µM [cytotoxic, single point].
For `CCn1c([N+](=O)[O-])nc2c1c(=O)[nH]c(=O)n2C`, the Potency was inconclusive: 29.1 µM [cytotoxic, single point].
With `CC(C)(C)c1cc(-c2nc(N)nc(N)n2)c(O)c(C(C)(C)C)c1` the Potency was inconclusive: 20.6 µM [cytotoxic, single point].
In the case of `N#CC1=C(N)NC(SCc2ccccc2)=C(C#N)C12CCCC2`, the Potency is reported as inconclusive: 29.1 µM [cytotoxic, single point].
With `Cc1ccc(S(=O)(=O)Nc2cc(C(=O)NCCN(C)C)ccc2N2CCCCC2)cc1` the Potency was inconclusive: 29.1 µM [cytotoxic, single point].
With `CCCc1nc2ccccc2c(C(=O)OC(C)C(=O)NCc2ccc3c(c2)OCO3)c1CC` (stereo not drawn) the Potency was inconclusive: 25.9 µM [cytotoxic, partial curve, poor fit].
For `O=C(CCNS(=O)(=O)c1ccc2[nH]c(=O)oc2c1)Nc1ccccc1`, the Potency was inconclusive: 2.91 µM [cytotoxic, partial curve, poor fit].
In the case of `C=CCC[C@H](Cc1ccc(F)cc1)C(=O)OC[C@@H](C)NC(=O)[C@@H](CC=C)CC(=O)N[C@H](CO)Cc1ccccc1`, the Potency is reported as inconclusive: 29.1 µM [cytotoxic, single point].
In the case of `Cc1ccc2c(CNCc3ccc(C)o3)c(C(=O)O)n(Cc3ccc(F)cc3)c2c1`, the Potency is reported as inconclusive: 32.6 µM [cytotoxic, single point].
For `CCN1/C(=C2/SC(=S)NC2=O)Sc2ccccc21`, the Potency was inconclusive: 29.1 µM [cytotoxic, single point].
With `COc1ccc(OC)c(S(=O)(=O)N/N=C\c2cn(CC(N)=O)c3ccccc23)c1` the Potency was inconclusive: 18.4 µM [cytotoxic, single point].
For `Cc1ccc2c(c1)c1c(n2CC(O)Cn2nc(C)c(Br)c2C)C(=O)CCC1` (stereo not drawn), the “activity change, negative = cytotoxic” value was inactive: -9.74%.
For `COC(=O)c1c(C)oc2ccc(N(C(=O)c3ccncc3)S(=O)(=O)c3cc(C)ccc3C)cc12`, the Potency was active: 13 µM.
For `COc1ccc(NC(=O)COC(=O)c2c3c(nc4ccccc24)CCCC3)cc1`, the Potency was inconclusive: 23.1 µM [cytotoxic, single point].
In the case of `CN(C)c1ccc(CC(=O)N2CCCCC2c2cc(C(=O)Nc3ccccc3Cl)no2)cc1` (stereo not drawn), the “activity change, negative = cytotoxic” value is reported as inactive: -0.234%.
For `CC(=O)c1ccc(NCCC(=O)c2ccccc2)cc1`, the “activity change, negative = cytotoxic” value was inactive: -4.11%.
For `C=CCNC(=O)c1ccccc1NC(=O)c1ccc(Cl)c(S(=O)(=O)Nc2cccc(C)c2C)c1`, the Potency was inconclusive: 29.1 µM [cytotoxic, single point].
In the case of `O=C(O)C1CCC(C(=O)O)SS1` (stereo not drawn), the “activity change, negative = cytotoxic” value is reported as inactive: 1.97%.
In the case of `CCC1COCCS(=O)(=O)N1Cc1ccc(C)cc1` (stereo not drawn), the Potency is reported as “inactive”.
In the case of `CCCn1cc(S(=O)(=O)c2ccc(Cl)cc2)c(=O)c2cc(OC)ccc21`, the Potency is reported as inconclusive: 29.1 µM [cytotoxic, single point].
With `O=S(=O)(/N=S1/CC=CCN1S(=O)(=O)c1ccccc1)c1ccccc1` (stereo not drawn) the “activity change, negative = cytotoxic” value was inactive: -8.56%.
For `CSc1ccccc1NC(=O)C1(C)CCN1C(=O)Cc1ccccc1Cl` (stereo not drawn), the “activity change, negative = cytotoxic” value was inactive: 0%.
With `Cc1cc(=O)c2c([nH]1)c(C)cc1[nH]c(C)c(C)c12` the Potency was inconclusive: 20.6 µM [rising, single point].
In the case of `O=C(NCC1([N+](=O)[O-])CN(C(=O)c2ccccc2)CN(C(=O)c2ccccc2)C1)c1ccccc1`, the “activity change, negative = cytotoxic” value is reported as inactive: 4.54%.
With `O=C1NC[C@@H](Cc2cccc3ccccc23)N(CCc2cccc(F)c2)C1=O` the “activity change, negative = cytotoxic” value was inactive: 11.1%.
With `COc1ccccc1C(=O)NNC(=O)c1cccc(O)c1` the “activity change, negative = cytotoxic” value was inactive: -4.02%.
In the case of `O=[N+]([O-])c1ccc(NN=Cc2cccc3ccccc23)nc1`, the Potency is reported as inconclusive: 29.1 µM [rising, single point].
With `Cc1cccc(C(=O)N2CCC(=O)N([C@H](COCc3cccc(Cl)c3)Cc3ccccc3)CC2)c1` the “activity change, negative = cytotoxic” value was inactive: -7.34%.
For `CC/C(=N/NC(=O)c1ccccc1O)c1c(C)[nH]n(-c2ccccc2)c1=O`, the Potency was inconclusive: 32.6 µM [cytotoxic, single point].
In the case of `COc1ccccc1NC(=O)c1cc2c(C)nn(-c3ccccc3)c2s1`, the “activity change, negative = cytotoxic” value is reported as inactive: 2.54%.
With `Brc1ccc(-c2nnc3sc(CNCc4ccc5c(c4)OCO5)cn23)cc1` the Potency was inconclusive: 0.0073 µM [cytotoxic, full curve].
For `CCOC(=O)C1(CCOc2ccccc2)CCN(Cc2ccc(OC)c(COC)c2)CC1`, the Potency was inconclusive: 25.9 µM [cytotoxic, partial curve, poor fit].
